# Results from the supplement of paper PMC3334620.
# In all, about 33,000 sequences were measured (“E-score (-0.5 to 0.5)”: median about -0.015, highest 2% from about 0.3 on). The list shows a part of the results.
# Target: T1, Abf1 (UniProt P14164)
# T1 sequence: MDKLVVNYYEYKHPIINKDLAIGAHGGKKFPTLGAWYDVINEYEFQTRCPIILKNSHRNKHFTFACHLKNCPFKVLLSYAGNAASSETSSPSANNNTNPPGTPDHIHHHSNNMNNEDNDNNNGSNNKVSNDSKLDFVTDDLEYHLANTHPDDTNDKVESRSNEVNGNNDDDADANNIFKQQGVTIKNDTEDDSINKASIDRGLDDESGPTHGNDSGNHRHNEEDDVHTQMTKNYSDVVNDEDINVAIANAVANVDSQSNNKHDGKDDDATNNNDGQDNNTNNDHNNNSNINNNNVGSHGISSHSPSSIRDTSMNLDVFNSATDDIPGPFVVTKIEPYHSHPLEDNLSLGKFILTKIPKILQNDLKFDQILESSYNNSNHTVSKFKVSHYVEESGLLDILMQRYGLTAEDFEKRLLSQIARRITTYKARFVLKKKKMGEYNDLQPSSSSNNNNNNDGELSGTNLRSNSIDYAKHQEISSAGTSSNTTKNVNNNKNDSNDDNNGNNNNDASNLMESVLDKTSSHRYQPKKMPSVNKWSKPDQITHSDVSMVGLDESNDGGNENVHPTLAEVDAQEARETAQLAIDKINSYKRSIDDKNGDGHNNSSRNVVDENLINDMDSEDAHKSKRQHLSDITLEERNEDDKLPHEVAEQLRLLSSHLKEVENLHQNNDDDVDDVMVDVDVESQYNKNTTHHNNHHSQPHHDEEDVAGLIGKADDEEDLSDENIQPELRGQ
# Experiment: PBM E-score (8-mer binding enrichment) (E-score (-0.5 to 0.5)); higher = stronger / more preferred TF binding
# Details: protein concentration: 200 nM; construct: GST-full length
# In short: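 For each ungapped eight-base word taken together with its reverse complement, the Universal PBM Analysis Suite assigned an E-score. Binding data came from GST-tagged yeast transcription factors, applied at about 100-200 nM, on universal all-10-mer Agilent arrays made double-stranded by primer extension. Fluorescent anti-GST marked bound protein, and scans were normalised with masliner.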
row,Sequence,PBM E-score
1,AAGAAGGC,-0.13
2,CATTTAAG,0.0948
3,GTAAAGAA,0.113
4,CGAATGAC,0.312
5,CACCCATG,0.026
6,CACTACTA,-0.0387
7,ATTCGCAA,-0.0147
8,AAAGGCAA,-0.0156
9,GTATCCCA,-0.0942
10,GGGGTCTA,-0.132
11,GACCTTGC,-0.137
12,GCATAGCA,-0.0915
13,AGGTGCAC,-0.186
14,AAGTTTAT,0.147
15,AAACTCCT,-0.13
16,AATATAGA,0.19
17,ACAGAAAA,0.0187
18,CCGCAAGA,0.0829
19,AGATCATA,0.192
20,CCGGTTTA,0.0654
21,AGGCCAGA,-0.0743
22,CATTTAAA,0.211
23,CCACCGGG,-0.141
24,GTCATAAC,0.105
25,CATCACTA,0.351

row,Sequence,PBM E-score
1,GAATCATA,-0.0285
2,AAAAGTGC,-0.0464
3,CTAAAGAG,-0.0578
4,CTAGACGC,0.022
5,CATAGCAC,0.0139
6,AACATGTG,0.0961
7,CGGTGACA,0.399
8,CCCCGACG,0.106
9,CTAAACAG,0.021
10,AACCCGCG,0.0385
11,CCGTACCA,0.303
12,CGTTACCA,0.192
13,ATTACTTA,0.141
14,CTTATTTC,0.192
15,GAACGACA,0.296
16,GCCTCCCA,-0.0682
17,GGCAGGAC,-0.221
18,CATAATGC,-0.136
19,CACTGTAC,-0.177
20,ACGTTGCT,0.105
21,GCACCGAC,0.135
22,AGTTTTTG,0.0548
23,GATTTACA,0.206
24,AGATAACG,0.118
25,GGATTAGA,-0.0113

row,Sequence,PBM E-score
1,CACTACGA,0.126
2,GAAGCTGA,-0.0959
3,CGACGGCA,0.174
4,AAGCTCTA,0.0174
5,ATCACGGG,0.163
6,CCGAATTC,-0.0501
7,GGTAATTA,-0.00628
8,GACATGAC,0.223
9,GGAAGTAA,-0.082
10,CGCTGGAA,-0.226
11,GCGTGACA,0.369
12,CTGCTATA,0.00993
13,CCTAAGCA,-0.0178
14,CATTCCCC,-0.057
15,CGGTTTTA,-0.11
16,ACCATGTC,0.137
17,CAATCGAG,-0.191
18,GCGCTGCC,-0.197
19,GAAATGCA,0.0956
20,CGCCTTAC,0.0282
21,GAAAAGAC,-0.00769
22,CAAAAGGG,-0.111
23,TCTGCTCA,-0.0679
24,GAAAAAAA,0.102
25,CCGGTTTC,-0.097

# Given as tab-separated lines: part of the list above
row	Sequence	PBM E-score
20	CGCCTTAC	0.0282
21	GAAAAGAC	-0.00769
22	CAAAAGGG	-0.111

# Next part.

row,Sequence,PBM E-score
1,AGGCCCTG,-0.252
2,GACAAATC,0.15
3,CTAAGACA,-0.015
4,GACATTCA,0.167
5,CGCGCTGA,-0.11
6,AGCAGTCC,-0.183
7,CCGTATGA,0.408
8,GTACACGA,0.362
9,TTACTGAA,0.0616
10,ATAGATAC,-0.0386
11,CCACGTCC,-0.0859
12,GGCGTACA,0.0819
13,ATATTCAC,0.107
14,ACGACTTC,0.242
15,CTGGGCAA,-0.172
16,ACTGGTAG,-0.192
17,CAATTTAA,0.167
18,CACTTATC,0.155
19,ACATCCGA,-0.131
20,TAATGACA,0.376
21,ACACAATG,-0.0799
22,AAGACGCG,-0.245
23,CAAGGGGC,-0.312
24,GAGGCACC,-0.286
25,ACCTGTTG,-0.0163

row,Sequence,PBM E-score
1,CCGCTACG,0.0224
2,CGGTTCTC,-0.114
3,CGATCGCG,0.242
4,CGTGTTGC,-0.00721
5,AGCAAACT,0.0536
6,ACGGACAA,0.202
7,AGTAACTG,0.00145
8,AAAATAGC,-0.0687
9,CAGCCTCA,0.00892
10,ACTTTTTC,0.161
11,GCACTCGC,-0.0729
12,GCAGCGGA,0.0412
13,AAGTGACA,0.394
14,AGACAAAA,0.0375
15,ATGCTGGA,-0.104
16,CACCGCAA,0.116
17,GCTCCTCC,-0.151
18,GAGCTTCC,0.075
19,AATCTCAA,0.0257
20,CCACCTCA,-0.175
21,ACTTAGCA,-0.0302
22,GGTGTTAC,-0.187
23,AACACGAC,0.148
24,ACAATCGG,0.0415
25,GCATTGAC,0.0038

row,Sequence,PBM E-score
1,CACAGGAA,-0.104
2,CATCCATA,0.0978
3,CCTCCGCA,-0.122
4,GGGTGTGA,-0.125
5,GCTAGCAC,-0.0691
6,TACCCATA,-0.169
7,CCCGACGC,-0.141
8,CGCAGACC,-0.227
9,ATCTTCTG,0.0215
10,AGATAGCC,-0.112
11,CCGATAGC,-0.277
12,AGGAGTAT,-0.107
13,GGGATCAC,-0.0214
14,CGGCCCTC,-0.13
15,AGTAACGG,0.0792
16,AACATGGA,-0.0976
17,GATGTGCC,-0.00551
18,GGGATAGA,-0.228
19,GACCTGGC,-0.0415
20,CACAGTGG,-0.0175
21,GGACCGAC,-0.284
22,CAGAATTC,0.0421
23,AACCCACA,-0.0783
24,CCCGATCA,-0.0828
25,AAGAAGAC,0.0359

row,Sequence,PBM E-score
1,GTAGTAAC,-0.0476
2,CCCTATAG,-0.14
3,AACGCCGC,-0.0204
4,CTTACAAC,0.123
5,CTGAGCAG,0.0408
6,GATCCAAC,0.0815
7,CGTTTACC,0.133
8,CTATTCTA,0.141
9,GCCGTCAC,0.0578
10,AGAATATG,0.0694
11,CGGGTGAC,0.213
12,GCGACGCC,-0.109
13,CAGTAGAA,0.0212
14,AACTTCCT,-0.0239
15,ACTGGGGG,-0.259
16,AATTGCGG,-0.19
17,ATAAAGCC,-0.0649
18,GTTCGAGA,-0.0582
19,CACAAGGA,0.0748
20,CGATAGGC,0.115
21,CTTCATCA,0.242
22,ATCAGGGC,-0.198
23,CGTGAAAA,0.268
24,CCCGGAGA,-0.249
25,GCTGACGA,0.173

row,Sequence,PBM E-score
1,GCGTGCGA,-0.0331
2,GGAGGAAA,-0.252
3,GTGCTGCA,0.0593
4,ACATACAC,0.106
5,AGGTATCC,0.061
6,GATAACAC,0.164
7,CAAGAATG,0.0252
8,AATTCCCG,-0.0785
9,CAGAACTC,-0.0645
10,AATGATGG,0.0838
11,AGGGACTA,-0.0198
12,ATGGTGAC,0.177
13,TATACATA,0.0494
14,CGAAGCAC,0.0193
15,ACAGCACT,0.0975
16,ACCTCGCC,-0.228
17,AAAACTGG,-0.0893
18,CAATGTTA,0.00532
19,CGGGACAC,-0.213
20,CACACAAG,-0.115
21,GCTTTCTA,0.0881
22,CGTCGTTA,0.257
23,AACTAATT,0.158
24,GGCTGTTA,-0.0398
25,GTAGAACA,-0.00788

# A different layout for some results above.
row	Sequence	PBM E-score
2	GGAGGAAA	-0.252
3	GTGCTGCA	0.0593
4	ACATACAC	0.106

# An excerpt of these results, bar-delimited:
row | Sequence | PBM E-score
25 | GCATTGAC | 0.0038
3 | AACGCCGC | -0.0204

# Later entries.

row,Sequence,PBM E-score
1,GGCGACCA,-0.195
2,AATAGCCT,-0.0216
3,ACAGCATG,-0.0675
4,CCAGTGTA,0.028
5,GCTTTAGA,-0.148
6,AGGATATA,0.143
7,TGGAGACA,0.0975
8,GTCGGACA,0.109
9,CACACATC,-0.122
10,CCATCTGA,0.0783
11,CAAGCAAA,-0.0902
12,TAAGCTTA,0.0474
13,TTCAAAAA,0.12
14,ACTGCATG,0.124
15,TCAGTTAA,-0.0609
16,ATCCGAAA,0.0126
17,ACCAAGAC,-0.0179
18,GTACGGTA,0.197
19,GGCAGGAA,0.0517
